Experimental data taken from publication PMC5554785.
Results are given in words; binding and its absence hold for the method and conditions named. In cells and extracts the contact can be indirect. Here binding means that the protein was enriched with, or labelled near, the bait; the list need not be complete.

Target: T1, germline nuclear Argonaute HRDE-1 (C. elegans) (UniProt Q09249)
T1 sequence: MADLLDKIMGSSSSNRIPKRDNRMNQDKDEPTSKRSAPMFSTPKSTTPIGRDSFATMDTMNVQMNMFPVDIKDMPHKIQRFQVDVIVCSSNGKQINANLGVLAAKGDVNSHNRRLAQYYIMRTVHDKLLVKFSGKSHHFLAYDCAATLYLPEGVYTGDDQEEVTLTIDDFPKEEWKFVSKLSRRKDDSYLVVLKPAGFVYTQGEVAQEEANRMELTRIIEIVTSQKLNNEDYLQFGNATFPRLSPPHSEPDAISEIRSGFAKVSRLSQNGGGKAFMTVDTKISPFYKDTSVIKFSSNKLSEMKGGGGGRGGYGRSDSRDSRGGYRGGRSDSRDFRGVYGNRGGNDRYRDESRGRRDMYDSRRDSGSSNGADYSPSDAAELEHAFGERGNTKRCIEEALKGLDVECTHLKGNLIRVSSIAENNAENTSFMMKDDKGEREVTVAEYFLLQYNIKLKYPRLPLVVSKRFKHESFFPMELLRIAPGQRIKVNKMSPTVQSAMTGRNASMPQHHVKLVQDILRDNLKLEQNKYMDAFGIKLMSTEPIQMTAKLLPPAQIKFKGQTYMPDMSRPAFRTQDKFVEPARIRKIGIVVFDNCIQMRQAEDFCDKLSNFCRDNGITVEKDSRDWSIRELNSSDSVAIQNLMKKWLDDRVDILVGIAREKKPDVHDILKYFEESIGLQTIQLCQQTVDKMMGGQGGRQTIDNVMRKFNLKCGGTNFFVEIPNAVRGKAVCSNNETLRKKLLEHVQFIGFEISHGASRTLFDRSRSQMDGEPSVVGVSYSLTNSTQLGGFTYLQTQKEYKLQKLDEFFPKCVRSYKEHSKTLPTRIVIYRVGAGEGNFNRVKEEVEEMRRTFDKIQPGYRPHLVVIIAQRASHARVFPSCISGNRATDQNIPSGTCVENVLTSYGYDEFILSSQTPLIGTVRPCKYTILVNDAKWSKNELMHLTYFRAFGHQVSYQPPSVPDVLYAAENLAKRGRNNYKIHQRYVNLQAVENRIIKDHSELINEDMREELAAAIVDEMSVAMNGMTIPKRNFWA
Test: affinity purification with mass spectrometry; SILAC IP: anti-HRDE-1 antibody coupled to dynabeads M270, lysates of heavy labelled wild-type and hrde-1(tm1200) mutant young adults, 1 hr at 4°C, washes with 300 mM NaCl, LC-MS/MS, three biological replicates

binding, binds:
ALY, RNA helicase Aquarius/EMB-4 (C. elegans), eIF4A3
